These are yes or no findings as the source states them, for the method shown. Binding seen in cells or lysates may run through a third protein. Some entries that bind do so weakly or less than the wild type. Tags and fused reporters may be left off the sequences shown.
T1: FLAG-Drosha (UniProt Q9NRR4)
T1 sequence: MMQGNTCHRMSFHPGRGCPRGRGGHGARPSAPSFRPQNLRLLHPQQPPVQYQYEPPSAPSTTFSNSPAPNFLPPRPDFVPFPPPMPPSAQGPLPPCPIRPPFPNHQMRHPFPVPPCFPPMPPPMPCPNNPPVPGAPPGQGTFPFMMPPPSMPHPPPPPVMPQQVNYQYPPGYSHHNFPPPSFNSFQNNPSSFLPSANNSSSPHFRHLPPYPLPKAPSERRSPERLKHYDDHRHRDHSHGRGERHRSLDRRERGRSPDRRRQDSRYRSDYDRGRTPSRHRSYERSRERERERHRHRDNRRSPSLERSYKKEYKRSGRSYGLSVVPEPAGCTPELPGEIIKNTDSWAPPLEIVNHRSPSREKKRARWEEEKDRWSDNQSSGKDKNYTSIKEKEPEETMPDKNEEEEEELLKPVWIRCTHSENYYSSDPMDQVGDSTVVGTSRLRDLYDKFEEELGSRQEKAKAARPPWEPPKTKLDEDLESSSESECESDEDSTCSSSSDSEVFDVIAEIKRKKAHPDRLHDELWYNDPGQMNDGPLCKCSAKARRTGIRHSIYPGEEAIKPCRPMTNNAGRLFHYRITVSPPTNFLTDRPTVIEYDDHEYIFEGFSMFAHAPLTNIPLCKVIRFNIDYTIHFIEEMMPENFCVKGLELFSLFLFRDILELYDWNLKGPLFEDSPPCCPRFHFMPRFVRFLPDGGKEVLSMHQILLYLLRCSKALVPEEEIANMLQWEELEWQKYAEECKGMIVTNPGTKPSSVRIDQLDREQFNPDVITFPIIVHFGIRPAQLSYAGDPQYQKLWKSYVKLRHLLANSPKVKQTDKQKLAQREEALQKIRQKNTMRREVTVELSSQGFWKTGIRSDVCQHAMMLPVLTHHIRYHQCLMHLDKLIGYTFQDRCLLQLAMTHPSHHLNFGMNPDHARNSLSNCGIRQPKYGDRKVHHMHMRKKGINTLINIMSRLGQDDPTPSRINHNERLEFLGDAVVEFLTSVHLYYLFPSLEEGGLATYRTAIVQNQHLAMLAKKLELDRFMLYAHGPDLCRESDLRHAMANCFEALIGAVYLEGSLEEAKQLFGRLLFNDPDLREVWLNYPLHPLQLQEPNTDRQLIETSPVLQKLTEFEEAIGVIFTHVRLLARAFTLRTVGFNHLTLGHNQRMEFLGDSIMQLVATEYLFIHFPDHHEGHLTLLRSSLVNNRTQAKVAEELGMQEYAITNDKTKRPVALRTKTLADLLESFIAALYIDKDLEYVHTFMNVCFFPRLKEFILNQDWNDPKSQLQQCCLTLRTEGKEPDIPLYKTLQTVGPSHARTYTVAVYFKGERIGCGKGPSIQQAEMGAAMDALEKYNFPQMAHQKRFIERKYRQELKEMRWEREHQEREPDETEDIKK

T2: hRRP6 (human (endogenous in HEK293T)) (UniProt Q01780)
T2 sequence: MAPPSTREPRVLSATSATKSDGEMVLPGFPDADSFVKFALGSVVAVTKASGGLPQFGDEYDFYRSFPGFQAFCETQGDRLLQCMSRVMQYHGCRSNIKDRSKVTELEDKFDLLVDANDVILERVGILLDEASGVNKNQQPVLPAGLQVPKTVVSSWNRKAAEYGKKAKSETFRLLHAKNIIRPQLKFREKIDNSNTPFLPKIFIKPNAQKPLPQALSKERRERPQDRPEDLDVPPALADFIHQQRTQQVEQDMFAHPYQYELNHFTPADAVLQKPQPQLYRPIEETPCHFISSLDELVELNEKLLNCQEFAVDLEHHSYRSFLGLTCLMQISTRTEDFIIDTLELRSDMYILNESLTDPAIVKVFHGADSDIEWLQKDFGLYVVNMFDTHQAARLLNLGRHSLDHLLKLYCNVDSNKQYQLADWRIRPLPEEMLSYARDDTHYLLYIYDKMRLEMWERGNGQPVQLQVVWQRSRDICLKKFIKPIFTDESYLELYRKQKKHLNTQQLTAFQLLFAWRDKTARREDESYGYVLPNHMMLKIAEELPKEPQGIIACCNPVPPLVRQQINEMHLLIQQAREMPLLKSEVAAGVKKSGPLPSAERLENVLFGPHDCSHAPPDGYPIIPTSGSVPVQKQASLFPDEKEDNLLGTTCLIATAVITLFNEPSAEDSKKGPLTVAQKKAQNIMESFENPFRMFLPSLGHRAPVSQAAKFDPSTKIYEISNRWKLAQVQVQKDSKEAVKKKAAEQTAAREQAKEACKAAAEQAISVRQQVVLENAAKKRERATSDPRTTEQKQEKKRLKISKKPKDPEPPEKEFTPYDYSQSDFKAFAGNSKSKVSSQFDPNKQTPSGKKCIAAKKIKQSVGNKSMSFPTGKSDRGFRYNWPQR

B1: dyskerin (protein, UniProt O60832 1-514)
chain: MADAEVIILPKKHKKKKERKSLPEEDVAEIQHAEEFLIKPESKVAKLDTSQWPLLLKNFDKLNVRTTHYTPLACGSNPLKREIGDYIRTGFINLDKPSNPSSHEVVAWIRRILRVEKTGHSGTLDPKVTGCLIVCIERATRLVKSQQSAGKEYVGIVRLHNAIEGGTQLSRALETLTGALFQRPPLIAAVKRQLRVRTIYESKMIEYDPERRLGIFWVSCEAGTYIRTLCVHLGLLLGVGGQMQELRRVRSGVMSEKDHMVTMHDVLDAQWLYDNHKDESYLRRVVYPLEKLLTSHKRLVMKDSAVNAICYGAKIMLPGVLRYEDGIEVNQEIVVITTKGEAICMAIALMTTAVISTCDHGIVAKIKRVIMERDTYPRKWGLGPKASQKKLMIKQGLLDKHGKPTDSTPATWKQEYVDYSESAKKEVVAEVVKAPQVVAEAAKTAKRKRESESESDETPPAAPQLIKKEKKKSKKDKKAKAGLESGAEPGDGDSDTTKKKKKKKKAKEVELVSE
B2: Fibrillarin (protein, UniProt P22087 1-321)
chain: MKPGFSPRGGGFGGRGGFGDRGGRGGRGGFGGGRGRGGGFRGRGRGGGGGGGGGGGGGRGGGGFHSGGNRGRGRGGKRGNQSGKNVMVEPHRHEGVFICRGKEDALVTKNLVPGESVYGEKRVSISEGDDKIEYRAWNPFRSKLAAAILGGVDQIHIKPGAKVLYLGAASGTTVSHVSDIVGPDGLVYAVEFSHRSGRDLINLAKKRTNIIPVIEDARHPHKYRMLIAMVDVIFADVAQPDQTRIVALNAHTFLRNGGHFVISIKANCIDSTASAEAVFASEVKKMQQENMKPQEQLTLEPYERDHAVVVGVYRPPPKVKN
B3: V5-tagged DGCR8 484-736 (domain or fragment, UniProt Q8WYQ5 484-736)
chain: PANQKLITLSVQDAPTKKEFVINPNGKSEVCILHEYMQRVLKVRPVYNFFECENPSEPFGASVTIDGVTYGSGTASSKKLAKNKAARATLEILIPDFVKQTSEEKPKDSEELEYFNHISIEDSRVYELTSKAGLLSPYQILHECLKRNHGMGDTSIKFEVVPGKNQKSEYVMACGKHTVRGWCKNKRVGKQLASQKILQLLHPHVKNWGSLLRMYGRESSKMVKQETSDKSVIELQQYAKKNKPNLHILSKLQ
B4: V5-tagged DGCR8 276-773 (domain or fragment, UniProt Q8WYQ5 276-773)
chain: DGETSVQPMMTKIKTVLKSRGRPPTEPLPDGWIMTFHNSGVPVYLHRESRVVTWSRPYFLGTGSIRKHDPPLSSIPCLHYKKMKDNEEREQSSDLTPSGDVSPVKPLSRSAELEFPLDEPDSMGADPGPPDEKDPLGAEAAPGALGQVKAKVEVCKDESVDLEEFRSYLEKRFDFEQVTVKKFRTWAERRQFNREMKRKQAESERPILPANQKLITLSVQDAPTKKEFVINPNGKSEVCILHEYMQRVLKVRPVYNFFECENPSEPFGASVTIDGVTYGSGTASSKKLAKNKAARATLEILIPDFVKQTSEEKPKDSEELEYFNHISIEDSRVYELTSKAGLLSPYQILHECLKRNHGMGDTSIKFEVVPGKNQKSEYVMACGKHTVRGWCKNKRVGKQLASQKILQLLHPHVKNWGSLLRMYGRESSKMVKQETSDKSVIELQQYAKKNKPNLHILSKLQEEMKRLAEEREETRKKPKMSIVASAQPGGEPLCTVDV
B5: V5-tagged DGCR8 1-692 (domain or fragment, UniProt Q8WYQ5 1-692)
chain: METDESPSPLPCGPAGEAVMESRARPFQALPREQSPPPPLQTSSGAEVMDVGSGGDGQSELPAEDPFNFYGASLLSKGSFSKGRLLIDPNCSGHSPRTARHAPAVRKFSPDLKLLKDVKISVSFTESCRSKDRKVLYTGAERDVRAECGLLLSPVSGDVHACPFGGSVGDGVGIGGESADKKDEENELDQEKRVEYAVLDELEDFTDNLELDEEGAGGFTAKAIVQRDRVDEEALNFPYEDDFDNDVDALLEEGLCAPKKRRTEEKYGGDSDHPSDGETSVQPMMTKIKTVLKSRGRPPTEPLPDGWIMTFHNSGVPVYLHRESRVVTWSRPYFLGTGSIRKHDPPLSSIPCLHYKKMKDNEEREQSSDLTPSGDVSPVKPLSRSAELEFPLDEPDSMGADPGPPDEKDPLGAEAAPGALGQVKAKVEVCKDESVDLEEFRSYLEKRFDFEQVTVKKFRTWAERRQFNREMKRKQAESERPILPANQKLITLSVQDAPTKKEFVINPNGKSEVCILHEYMQRVLKVRPVYNFFECENPSEPFGASVTIDGVTYGSGTASSKKLAKNKAARATLEILIPDFVKQTSEEKPKDSEELEYFNHISIEDSRVYELTSKAGLLSPYQILHECLKRNHGMGDTSIKFEVVPGKNQKSEYVMACGKHTVRGWCKNKRVGKQLASQKILQLLHPHVKNWG
B6: V5-tagged DGCR8 484-750 (domain or fragment, UniProt Q8WYQ5 484-750)
chain: PANQKLITLSVQDAPTKKEFVINPNGKSEVCILHEYMQRVLKVRPVYNFFECENPSEPFGASVTIDGVTYGSGTASSKKLAKNKAARATLEILIPDFVKQTSEEKPKDSEELEYFNHISIEDSRVYELTSKAGLLSPYQILHECLKRNHGMGDTSIKFEVVPGKNQKSEYVMACGKHTVRGWCKNKRVGKQLASQKILQLLHPHVKNWGSLLRMYGRESSKMVKQETSDKSVIELQQYAKKNKPNLHILSKLQEEMKRLAEEREETR
B7: V5-tagged DGCR8 484-773 (domain or fragment, UniProt Q8WYQ5 484-773)
chain: PANQKLITLSVQDAPTKKEFVINPNGKSEVCILHEYMQRVLKVRPVYNFFECENPSEPFGASVTIDGVTYGSGTASSKKLAKNKAARATLEILIPDFVKQTSEEKPKDSEELEYFNHISIEDSRVYELTSKAGLLSPYQILHECLKRNHGMGDTSIKFEVVPGKNQKSEYVMACGKHTVRGWCKNKRVGKQLASQKILQLLHPHVKNWGSLLRMYGRESSKMVKQETSDKSVIELQQYAKKNKPNLHILSKLQEEMKRLAEEREETRKKPKMSIVASAQPGGEPLCTVDV
B8: V5-tagged wild-type DGCR8 (protein, UniProt Q8WYQ5 1-773)
chain: METDESPSPLPCGPAGEAVMESRARPFQALPREQSPPPPLQTSSGAEVMDVGSGGDGQSELPAEDPFNFYGASLLSKGSFSKGRLLIDPNCSGHSPRTARHAPAVRKFSPDLKLLKDVKISVSFTESCRSKDRKVLYTGAERDVRAECGLLLSPVSGDVHACPFGGSVGDGVGIGGESADKKDEENELDQEKRVEYAVLDELEDFTDNLELDEEGAGGFTAKAIVQRDRVDEEALNFPYEDDFDNDVDALLEEGLCAPKKRRTEEKYGGDSDHPSDGETSVQPMMTKIKTVLKSRGRPPTEPLPDGWIMTFHNSGVPVYLHRESRVVTWSRPYFLGTGSIRKHDPPLSSIPCLHYKKMKDNEEREQSSDLTPSGDVSPVKPLSRSAELEFPLDEPDSMGADPGPPDEKDPLGAEAAPGALGQVKAKVEVCKDESVDLEEFRSYLEKRFDFEQVTVKKFRTWAERRQFNREMKRKQAESERPILPANQKLITLSVQDAPTKKEFVINPNGKSEVCILHEYMQRVLKVRPVYNFFECENPSEPFGASVTIDGVTYGSGTASSKKLAKNKAARATLEILIPDFVKQTSEEKPKDSEELEYFNHISIEDSRVYELTSKAGLLSPYQILHECLKRNHGMGDTSIKFEVVPGKNQKSEYVMACGKHTVRGWCKNKRVGKQLASQKILQLLHPHVKNWGSLLRMYGRESSKMVKQETSDKSVIELQQYAKKNKPNLHILSKLQEEMKRLAEEREETRKKPKMSIVASAQPGGEPLCTVDV

What follows are binders tested against T1, FLAG-Drosha (assay: co-IP; anti-T7 or anti-FLAG immunoprecipitation of overexpressed T7-DGCR8, FLAG-DGCR8, FLAG-Drosha (and T7-DGCR8 dRBD1&2 mut) from transfected HEK293T cells; western blot of endogenous partners; in the presence or absence of RNase A (Figure 1C)).

| binding | Binder |
| --- | --- |
| no binding | B1 |
| no binding | B2 |

The binders below were run against T2, hRRP6 (human (endogenous in HEK293T)) (assay: co-IP; HEK293T cells transfected with V5-tagged DGCR8 or truncations; immunoprecipitation of endogenous hRRP6, western blot with anti-V5).

| binding | Binder |
| --- | --- |
| binds weakly | B3 |
| binds weakly | B4 |
| binds | B5 |
| binds weakly | B6 |
| binds weakly | B7 |
| binds | B8 |
